{"sequences": {"note": "By UniProt entry, the sequences of proteins in these tests, tags left out.", "UniProt Q9UBN7, whole entry": "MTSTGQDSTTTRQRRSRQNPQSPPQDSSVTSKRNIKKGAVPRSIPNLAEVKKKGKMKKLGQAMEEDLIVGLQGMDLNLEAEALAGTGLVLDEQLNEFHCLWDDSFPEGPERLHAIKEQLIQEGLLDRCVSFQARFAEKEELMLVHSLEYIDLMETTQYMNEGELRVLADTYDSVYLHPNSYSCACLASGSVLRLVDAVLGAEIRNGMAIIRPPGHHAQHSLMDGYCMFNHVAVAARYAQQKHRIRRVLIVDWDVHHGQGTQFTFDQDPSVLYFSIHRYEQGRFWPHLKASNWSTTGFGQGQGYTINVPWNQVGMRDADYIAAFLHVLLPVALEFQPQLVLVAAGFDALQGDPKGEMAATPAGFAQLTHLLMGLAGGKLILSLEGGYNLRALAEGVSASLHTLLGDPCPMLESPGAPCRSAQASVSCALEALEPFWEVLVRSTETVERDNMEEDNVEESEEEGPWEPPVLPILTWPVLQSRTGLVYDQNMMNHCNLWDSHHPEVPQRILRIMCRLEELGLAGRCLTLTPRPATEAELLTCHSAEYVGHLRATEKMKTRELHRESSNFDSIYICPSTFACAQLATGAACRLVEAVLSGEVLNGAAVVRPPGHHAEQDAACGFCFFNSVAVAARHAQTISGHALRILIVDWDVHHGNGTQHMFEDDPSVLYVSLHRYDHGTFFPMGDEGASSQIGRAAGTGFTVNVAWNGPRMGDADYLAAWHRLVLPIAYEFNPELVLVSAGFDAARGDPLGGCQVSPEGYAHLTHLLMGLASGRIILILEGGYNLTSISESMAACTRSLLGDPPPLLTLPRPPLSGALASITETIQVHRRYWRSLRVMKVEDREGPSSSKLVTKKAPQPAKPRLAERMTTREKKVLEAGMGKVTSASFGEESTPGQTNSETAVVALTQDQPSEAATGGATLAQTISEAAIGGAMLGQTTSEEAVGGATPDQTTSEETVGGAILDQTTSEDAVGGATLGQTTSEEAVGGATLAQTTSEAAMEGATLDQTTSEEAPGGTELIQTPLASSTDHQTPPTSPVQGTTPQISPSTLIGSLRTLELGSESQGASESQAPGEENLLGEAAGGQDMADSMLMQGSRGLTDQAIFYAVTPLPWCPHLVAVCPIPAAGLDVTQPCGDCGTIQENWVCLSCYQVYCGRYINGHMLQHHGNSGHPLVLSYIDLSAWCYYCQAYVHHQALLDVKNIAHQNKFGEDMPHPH", "UniProt Q13547, whole entry": "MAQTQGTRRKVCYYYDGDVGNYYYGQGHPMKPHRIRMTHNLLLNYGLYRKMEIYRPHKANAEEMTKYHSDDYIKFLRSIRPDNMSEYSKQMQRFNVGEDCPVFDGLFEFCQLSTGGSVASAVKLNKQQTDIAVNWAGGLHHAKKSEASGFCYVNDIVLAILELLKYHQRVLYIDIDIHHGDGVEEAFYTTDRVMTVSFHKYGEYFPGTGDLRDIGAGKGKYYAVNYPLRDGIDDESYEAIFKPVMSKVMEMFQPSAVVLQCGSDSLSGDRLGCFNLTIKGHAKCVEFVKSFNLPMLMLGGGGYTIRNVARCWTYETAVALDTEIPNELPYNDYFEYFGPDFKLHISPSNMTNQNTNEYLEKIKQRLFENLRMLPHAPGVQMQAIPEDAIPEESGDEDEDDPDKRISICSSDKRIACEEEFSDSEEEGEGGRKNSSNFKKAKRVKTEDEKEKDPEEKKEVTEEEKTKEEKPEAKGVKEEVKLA"}, "source": "patent US9650379B2", "about": "(CHONG KUN DANG PHARMACEUTICAL CORP., priority 2013, dated 2017)", "key": {"HDAC6 human recombinant": {"molecular_target": "HDAC6 human recombinant (Homo sapiens, UniProt Q9UBN7)", "experiment": "Inhibition of HDAC6 activity (fluorimetric assay)", "conditions": "read-out: HDAC6; test concentrations 0.1, 1, 10, 100 and 1000 nM; 37° C., 60 minutes", "protocol": "Assays were performed using a HDAC1 fluorimetric drug discovery assay kit (Enzolifesciences: BML-AK511) and a HDAC6 human recombinant (Calbiochem: 382180). The assay mixture of the kit was treated with a test compound at concentrations of 100, 1000 and 10000 nM for HDAC1 assay and concentrations of 0.1, 1, 10, 100 and 1000 nM for HDAC6 assay. The treated assay mixture was allowed to react at 37° C. for 60 minutes, and then was treated with a developer and allowed to stand at 37° C. for 30 minutes, followed by quantification of the fluorescence."}, "HDAC1": {"molecular_target": "HDAC1 (Homo sapiens, UniProt Q13547)", "experiment": "Inhibition of HDAC1 activity (HDAC1 fluorimetric drug discovery assay kit)", "conditions": "read-out: HDAC1; test concentrations 100, 1000 and 10000 nM; 37° C., 60 minutes"}}, "note": "The structures given here were assigned with low confidence; some may be wrong."}
{"smiles": "CC(C)(C)OC(=O)N1CC=C(c2cncc3ccn(Cc4ccc(C(=O)NO)cc4)c23)CC1", "values": [{"measurement": "IC50", "setting": "HDAC6 human recombinant", "result": 0.499, "unit": "µM"}, {"measurement": "IC50", "setting": "HDAC1", "result": 13.6, "unit": "µM"}]}
